Among the data in paper PMC8786740 are binding values, retold here.

The target in test [1] is T1, BAK1 fused to the C-terminal half of GFP (35Spro:BAK1-cGFP) (Arabidopsis thaliana) (UniProt Q94F62).
T1 sequence: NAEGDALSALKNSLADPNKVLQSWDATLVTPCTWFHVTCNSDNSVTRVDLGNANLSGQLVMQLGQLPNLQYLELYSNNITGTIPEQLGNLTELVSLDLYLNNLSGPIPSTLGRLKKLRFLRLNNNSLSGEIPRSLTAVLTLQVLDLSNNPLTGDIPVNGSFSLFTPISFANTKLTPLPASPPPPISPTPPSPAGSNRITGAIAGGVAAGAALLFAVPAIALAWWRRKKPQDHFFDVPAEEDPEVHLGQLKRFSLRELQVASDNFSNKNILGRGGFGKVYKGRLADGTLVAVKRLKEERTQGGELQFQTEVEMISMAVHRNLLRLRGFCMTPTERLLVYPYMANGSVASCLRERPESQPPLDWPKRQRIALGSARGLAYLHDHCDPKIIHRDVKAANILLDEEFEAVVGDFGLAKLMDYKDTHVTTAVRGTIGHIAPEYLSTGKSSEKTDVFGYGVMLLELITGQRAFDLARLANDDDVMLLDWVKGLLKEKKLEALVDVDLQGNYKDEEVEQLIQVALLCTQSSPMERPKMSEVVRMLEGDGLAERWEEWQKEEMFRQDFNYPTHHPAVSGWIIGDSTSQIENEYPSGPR
The test is described as follows: split reporter; BIFC: BAK1-cGFP with LRR-RLK-nGFP, transient expression in N. benthamiana leaves, confocal imaging 3 days after infiltration; mean GFP signal compared with the PEPR1-nGFP/BAK1-cGFP pair taken as background.

The target of test [2] is T2, PXC3 with a C-terminal GFP fusion (35Spro:PXC3-GFP) (Arabidopsis thaliana) (UniProt O22938).
T2 sequence: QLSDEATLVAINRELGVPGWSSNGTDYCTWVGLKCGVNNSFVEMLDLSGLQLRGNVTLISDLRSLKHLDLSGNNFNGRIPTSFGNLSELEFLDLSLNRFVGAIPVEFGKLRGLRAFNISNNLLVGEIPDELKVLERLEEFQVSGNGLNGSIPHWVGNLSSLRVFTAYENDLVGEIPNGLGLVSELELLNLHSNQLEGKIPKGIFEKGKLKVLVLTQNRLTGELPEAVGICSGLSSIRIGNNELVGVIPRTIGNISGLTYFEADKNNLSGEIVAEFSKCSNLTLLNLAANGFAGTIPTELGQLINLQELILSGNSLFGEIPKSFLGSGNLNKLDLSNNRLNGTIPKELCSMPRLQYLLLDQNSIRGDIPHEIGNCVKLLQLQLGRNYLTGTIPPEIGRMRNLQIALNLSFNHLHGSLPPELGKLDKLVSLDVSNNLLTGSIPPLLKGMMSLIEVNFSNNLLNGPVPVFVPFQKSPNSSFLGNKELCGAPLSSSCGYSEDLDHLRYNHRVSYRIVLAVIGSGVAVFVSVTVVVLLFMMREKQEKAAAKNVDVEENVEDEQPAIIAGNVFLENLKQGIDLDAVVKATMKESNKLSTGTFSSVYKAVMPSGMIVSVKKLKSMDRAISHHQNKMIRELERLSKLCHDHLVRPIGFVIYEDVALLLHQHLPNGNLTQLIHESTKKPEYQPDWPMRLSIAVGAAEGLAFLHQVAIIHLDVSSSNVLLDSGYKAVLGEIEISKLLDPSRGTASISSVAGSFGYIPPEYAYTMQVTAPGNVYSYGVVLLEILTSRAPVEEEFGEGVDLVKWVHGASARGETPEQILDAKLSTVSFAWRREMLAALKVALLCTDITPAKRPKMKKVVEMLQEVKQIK
As to the kind of experiment: co-IP; PXC3-GFP and BAK1-HA co-infiltrated in tobacco leaves; leaf extract (1% Triton X-100, 150 mM NaCl), GFP-trap magnetic agarose beads 1 h at 4 C; western blot with anti-HA and anti-GFP. For orientation: In western blotting, separated proteins are transferred to a membrane and probed.

These are yes or no findings as the source states them, for the method shown. In cells and extracts the contact can be indirect. Some entries that bind do so weakly or less than the wild type. Where a sequence is shown, tags or fusion partners need not be part of it.

B1: BIR2 fused to the N-terminal half of GFP (35Spro:BIR2-nGFP) (receptor, UniProt Q9LSI9 29-605)
chain: ADEDDIRCLRGLKASLTDPQNALKSWNFDNTTLGFLCNFVGVSCWNNQENRVINLELRDMGLSGKIPDSLQYCASLQKLDLSSNRLSGNIPTELCNWLPFLVSLDLSNNELNGEIPPDLAKCSFVNSLVLSDNRLSGQIPVQFSALGRLGRFSVANNDLSGRIPVFFSSPSYSSDDFSGNKGLCGRPLSSSCGGLSKKNLGIIIAAGVFGAAASMLLAFGIWWYYHLKWTRRRRSGLTEVGVSGLAQRLRSHKLTQVSLFQKPLVKVKLGDLMAATNNFNSENIIVSTRTGTTYKALLPDGSALAVKHLSTCKLGEREFRYEMNQLWELRHSNLAPLLGFCVVEEEKFLVYKYMSNGTLHSLLDSNRGELDWSTRFRIGLGAARGLAWLHHGCRPPILHQNICSSVILIDEDFDARIIDSGLARLMVPSDNNESSFMTGDLGEFGYVAPEYSTTMLASLKGDVYGLGVVLLELATGLKAVGGEGFKGSLVDWVKQLESSGRIAETFDENIRGKGHDEEISKFVEIALNCVSSRPKERWSMFQAYQSLKAIAEKQGYSFSEQDDDFPLIFDTQENEKV
Consider B1, for which the binding result in test [1] is “binds”.

B2: PXC3 fused to the N-terminal half of GFP (35Spro:PXC3-nGFP) (receptor, UniProt O22938 24-890)
chain: QLSDEATLVAINRELGVPGWSSNGTDYCTWVGLKCGVNNSFVEMLDLSGLQLRGNVTLISDLRSLKHLDLSGNNFNGRIPTSFGNLSELEFLDLSLNRFVGAIPVEFGKLRGLRAFNISNNLLVGEIPDELKVLERLEEFQVSGNGLNGSIPHWVGNLSSLRVFTAYENDLVGEIPNGLGLVSELELLNLHSNQLEGKIPKGIFEKGKLKVLVLTQNRLTGELPEAVGICSGLSSIRIGNNELVGVIPRTIGNISGLTYFEADKNNLSGEIVAEFSKCSNLTLLNLAANGFAGTIPTELGQLINLQELILSGNSLFGEIPKSFLGSGNLNKLDLSNNRLNGTIPKELCSMPRLQYLLLDQNSIRGDIPHEIGNCVKLLQLQLGRNYLTGTIPPEIGRMRNLQIALNLSFNHLHGSLPPELGKLDKLVSLDVSNNLLTGSIPPLLKGMMSLIEVNFSNNLLNGPVPVFVPFQKSPNSSFLGNKELCGAPLSSSCGYSEDLDHLRYNHRVSYRIVLAVIGSGVAVFVSVTVVVLLFMMREKQEKAAAKNVDVEENVEDEQPAIIAGNVFLENLKQGIDLDAVVKATMKESNKLSTGTFSSVYKAVMPSGMIVSVKKLKSMDRAISHHQNKMIRELERLSKLCHDHLVRPIGFVIYEDVALLLHQHLPNGNLTQLIHESTKKPEYQPDWPMRLSIAVGAAEGLAFLHQVAIIHLDVSSSNVLLDSGYKAVLGEIEISKLLDPSRGTASISSVAGSFGYIPPEYAYTMQVTAPGNVYSYGVVLLEILTSRAPVEEEFGEGVDLVKWVHGASARGETPEQILDAKLSTVSFAWRREMLAALKVALLCTDITPAKRPKMKKVVEMLQEVKQIK
With B2, the binding result in test [1] is on record as “binds”.

B3: BAK1 fused to a 3x HA tag (35Spro:BAK1-HA) (receptor, UniProt Q94F62 26-615)
chain: NAEGDALSALKNSLADPNKVLQSWDATLVTPCTWFHVTCNSDNSVTRVDLGNANLSGQLVMQLGQLPNLQYLELYSNNITGTIPEQLGNLTELVSLDLYLNNLSGPIPSTLGRLKKLRFLRLNNNSLSGEIPRSLTAVLTLQVLDLSNNPLTGDIPVNGSFSLFTPISFANTKLTPLPASPPPPISPTPPSPAGSNRITGAIAGGVAAGAALLFAVPAIALAWWRRKKPQDHFFDVPAEEDPEVHLGQLKRFSLRELQVASDNFSNKNILGRGGFGKVYKGRLADGTLVAVKRLKEERTQGGELQFQTEVEMISMAVHRNLLRLRGFCMTPTERLLVYPYMANGSVASCLRERPESQPPLDWPKRQRIALGSARGLAYLHDHCDPKIIHRDVKAANILLDEEFEAVVGDFGLAKLMDYKDTHVTTAVRGTIGHIAPEYLSTGKSSEKTDVFGYGVMLLELITGQRAFDLARLANDDDVMLLDWVKGLLKEKKLEALVDVDLQGNYKDEEVEQLIQVALLCTQSSPMERPKMSEVVRMLEGDGLAERWEEWQKEEMFRQDFNYPTHHPAVSGWIIGDSTSQIENEYPSGPR
Consider B3, for which the binding result in test [2] is “binds”.
